Assay [1] deals with T1, HA-NOVA1 (UniProt P51513).
T1 sequence: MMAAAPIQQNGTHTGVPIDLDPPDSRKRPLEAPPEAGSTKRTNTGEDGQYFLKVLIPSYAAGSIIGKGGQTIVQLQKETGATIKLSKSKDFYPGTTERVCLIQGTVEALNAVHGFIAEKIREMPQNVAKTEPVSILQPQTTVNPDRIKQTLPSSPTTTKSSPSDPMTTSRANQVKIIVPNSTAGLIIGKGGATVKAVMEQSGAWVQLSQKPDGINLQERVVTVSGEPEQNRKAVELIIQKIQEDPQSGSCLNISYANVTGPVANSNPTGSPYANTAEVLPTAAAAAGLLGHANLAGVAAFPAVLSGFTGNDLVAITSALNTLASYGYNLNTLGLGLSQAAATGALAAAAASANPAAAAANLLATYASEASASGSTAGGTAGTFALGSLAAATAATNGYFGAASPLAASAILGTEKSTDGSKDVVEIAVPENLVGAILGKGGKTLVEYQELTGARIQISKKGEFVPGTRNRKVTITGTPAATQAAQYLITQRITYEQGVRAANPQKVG
The assay is described as follows: co-IP; HEK cells co-transfected with CTF-V5 and HA-LSD1, HA-nLSD1 or HA-NOVA1, modified RIPA buffer; CTF-V5 co-immunoprecipitated by the HA-tagged proteins (Figure S4D).

The target of assay [2] is T2, PCDH19-V5 (full-length protocadherin-19 with V5 tag) (human) (UniProt Q8TAB3).
T2 sequence: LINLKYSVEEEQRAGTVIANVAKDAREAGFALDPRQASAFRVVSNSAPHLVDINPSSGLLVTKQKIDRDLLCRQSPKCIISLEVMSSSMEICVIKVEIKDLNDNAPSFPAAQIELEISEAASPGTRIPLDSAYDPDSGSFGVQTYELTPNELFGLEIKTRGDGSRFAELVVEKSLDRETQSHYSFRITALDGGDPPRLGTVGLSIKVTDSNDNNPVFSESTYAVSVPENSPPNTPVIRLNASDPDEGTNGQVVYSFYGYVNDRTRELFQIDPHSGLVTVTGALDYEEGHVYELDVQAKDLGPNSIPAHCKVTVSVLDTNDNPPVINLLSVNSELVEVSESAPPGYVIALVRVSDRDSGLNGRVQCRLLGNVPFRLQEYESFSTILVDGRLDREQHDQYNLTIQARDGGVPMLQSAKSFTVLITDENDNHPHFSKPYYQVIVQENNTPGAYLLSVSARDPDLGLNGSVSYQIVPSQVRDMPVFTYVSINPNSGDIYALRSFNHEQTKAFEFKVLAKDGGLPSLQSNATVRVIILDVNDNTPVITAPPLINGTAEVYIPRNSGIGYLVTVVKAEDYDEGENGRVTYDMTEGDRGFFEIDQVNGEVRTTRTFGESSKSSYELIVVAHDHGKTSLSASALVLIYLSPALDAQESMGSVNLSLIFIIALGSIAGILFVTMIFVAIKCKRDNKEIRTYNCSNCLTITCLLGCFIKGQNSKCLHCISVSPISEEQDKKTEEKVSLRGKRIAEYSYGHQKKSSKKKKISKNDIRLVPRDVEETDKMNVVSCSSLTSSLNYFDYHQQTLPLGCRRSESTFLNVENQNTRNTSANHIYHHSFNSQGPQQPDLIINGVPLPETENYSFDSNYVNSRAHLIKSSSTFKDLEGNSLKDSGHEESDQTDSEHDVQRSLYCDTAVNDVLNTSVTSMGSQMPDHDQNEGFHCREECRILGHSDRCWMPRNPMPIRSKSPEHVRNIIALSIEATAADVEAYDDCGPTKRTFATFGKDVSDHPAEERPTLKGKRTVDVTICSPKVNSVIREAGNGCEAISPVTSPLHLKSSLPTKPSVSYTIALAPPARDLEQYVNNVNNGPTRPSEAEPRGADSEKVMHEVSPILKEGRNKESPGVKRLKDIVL
Briefly: co-IP; HEK 293FT cells co-transfected, lysed in modified RIPA buffer; IP with anti-V5 (or control IgG) overnight at 4°C, protein A-agarose; blots probed for V5 or HA.

Results are given in words; binding and its absence hold for the method and conditions named. Binding seen in cells or lysates may run through a third protein. Sequences can lack the tags named with a protein.

B1: CTF-V5 (entire human PCDH19 C-terminal fragment with C-terminal V5 tag) (domain or fragment, UniProt Q8TAB3-1 700-1148)
chain: AIKCKRDNKEIRTYNCSNCLTITCLLGCFIKGQNSKCLHCISVSPISEEQDKKTEEKVSLRGKRIAEYSYGHQKKSSKKKKISKNDIRLVPRDVEETDKMNVVSCSSLTSSLNYFDYHQQTLPLGCRRSESTFLNVENQNTRNTSANHIYHHSFNSQGPQQPDLIINGVPLPETENYSFDSNYVNSRAHLIKSSSTFKDLEGNSLKDSGHEESDQTDSEHDVQRSLYCDTAVNDVLNTSVTSMGSQMPDHDQNEGFHCREECRILGHSDRCWMPRNPMPIRSKSPEHVRNIIALSIEATAADVEAYDDCGPTKRTFATFGKDVSDHPAEERPTLKGKRTVDVTICSPKVNSVIREAGNGCEAISPVTSPLHLKSSLPTKPSVSYTIALAPPARDLEQYVNNVNNGPTRPSEAEPRGADSEKVMHEVSPILKEGRNKESPGVKRLKDIVL
Regarding B1, in assay [1], the binding result is reported as “no binding”.

B2: HA-NOVA1 (protein, UniProt P51513 1-507)
chain: MMAAAPIQQNGTHTGVPIDLDPPDSRKRPLEAPPEAGSTKRTNTGEDGQYFLKVLIPSYAAGSIIGKGGQTIVQLQKETGATIKLSKSKDFYPGTTERVCLIQGTVEALNAVHGFIAEKIREMPQNVAKTEPVSILQPQTTVNPDRIKQTLPSSPTTTKSSPSDPMTTSRANQVKIIVPNSTAGLIIGKGGATVKAVMEQSGAWVQLSQKPDGINLQERVVTVSGEPEQNRKAVELIIQKIQEDPQSGSCLNISYANVTGPVANSNPTGSPYANTAEVLPTAAAAAGLLGHANLAGVAAFPAVLSGFTGNDLVAITSALNTLASYGYNLNTLGLGLSQAAATGALAAAAASANPAAAAANLLATYASEASASGSTAGGTAGTFALGSLAAATAATNGYFGAASPLAASAILGTEKSTDGSKDVVEIAVPENLVGAILGKGGKTLVEYQELTGARIQISKKGEFVPGTRNRKVTITGTPAATQAAQYLITQRITYEQGVRAANPQKVG
Take B2: the binding entry in assay [2] is “no binding”.

These data come from publication PMC9152703.
